Reference: article PMC7814725
These are yes or no findings as the source states them, for the method shown. In cells and extracts the contact can be indirect. Some entries that bind do so weakly or less than the wild type. Where a sequence is shown, tags or fusion partners need not be part of it.

Protein sequences, listed by entry. Tags and fused reporters are not part of them.
UniProt Q14203: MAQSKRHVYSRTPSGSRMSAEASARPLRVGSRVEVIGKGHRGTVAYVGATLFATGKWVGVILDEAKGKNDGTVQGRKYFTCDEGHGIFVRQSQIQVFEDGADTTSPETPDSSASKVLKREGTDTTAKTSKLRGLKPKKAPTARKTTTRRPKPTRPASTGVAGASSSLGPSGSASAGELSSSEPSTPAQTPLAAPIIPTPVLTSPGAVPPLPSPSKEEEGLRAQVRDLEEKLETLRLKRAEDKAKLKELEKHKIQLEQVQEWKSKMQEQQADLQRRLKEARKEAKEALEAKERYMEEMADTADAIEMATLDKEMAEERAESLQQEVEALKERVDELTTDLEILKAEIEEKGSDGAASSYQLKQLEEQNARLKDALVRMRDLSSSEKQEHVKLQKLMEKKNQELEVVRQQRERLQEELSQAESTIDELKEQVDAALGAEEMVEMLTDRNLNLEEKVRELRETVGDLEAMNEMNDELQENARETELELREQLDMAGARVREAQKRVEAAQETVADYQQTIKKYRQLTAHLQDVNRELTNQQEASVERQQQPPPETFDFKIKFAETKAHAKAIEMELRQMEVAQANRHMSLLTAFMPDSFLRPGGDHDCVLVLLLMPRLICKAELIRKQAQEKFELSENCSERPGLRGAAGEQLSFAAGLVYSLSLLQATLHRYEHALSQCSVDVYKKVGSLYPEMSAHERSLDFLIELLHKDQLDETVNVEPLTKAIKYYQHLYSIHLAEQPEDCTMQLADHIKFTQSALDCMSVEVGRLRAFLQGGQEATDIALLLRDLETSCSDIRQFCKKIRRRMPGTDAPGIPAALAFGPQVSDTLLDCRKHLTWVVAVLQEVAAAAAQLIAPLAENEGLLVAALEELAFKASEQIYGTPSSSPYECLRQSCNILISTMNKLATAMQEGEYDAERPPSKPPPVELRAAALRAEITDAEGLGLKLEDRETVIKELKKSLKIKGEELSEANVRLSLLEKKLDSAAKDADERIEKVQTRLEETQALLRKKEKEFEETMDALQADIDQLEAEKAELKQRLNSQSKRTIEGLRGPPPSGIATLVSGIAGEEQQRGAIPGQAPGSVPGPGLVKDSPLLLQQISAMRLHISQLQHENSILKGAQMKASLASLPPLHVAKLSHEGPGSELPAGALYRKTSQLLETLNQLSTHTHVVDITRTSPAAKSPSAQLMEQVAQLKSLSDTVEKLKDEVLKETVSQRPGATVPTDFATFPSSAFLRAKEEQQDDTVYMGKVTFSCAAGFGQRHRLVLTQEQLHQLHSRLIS

B1: GFP-hDysbindin C-terminal region (181-351 aa) (domain or fragment, UniProt Q96EV8 181-351)
chain: VLEMEHTQQMKLKERQKFFEEAFQQDMEQYLSTGYLQIAERREPIGSMSSMEVNVDMLEQMDLMDISDQEALDVFLNSGGEENTVLSPALGPESSTCQNEITLQVPNPSELRAKPPSSSSTCTDSATRDISEGGESPVVQSDEEEVQVDTALATSHTDREATPDGGEDSDS
B2: GFP-hDysbindin middle region (88-180 aa) (domain or fragment, UniProt Q96EV8 88-180)
chain: EKKKTSLVELQEQLQQLPALIADLESMTANLTHLEASFEEVENNLLHLEDLCGQCELERCKHMQSQQLENYKKNKRKELETFKAELDAEHAQK
B3: GFP-hDysbindin N-terminal region (1-87 aa) (domain or fragment, UniProt Q96EV8 1-87)
chain: MLETLRERLLSVQQDFTSGLKTLSDKSREAKVKSKPRTVPFLPKYSAGLELLSRYEDTWAALHRRAKDCASAGELVDSEVVMLSAHW

What follows are binders tested against FLAG-p150^glued (human dynactin subunit 1 isoform 1) (human) (UniProt Q14203) (assay: co-IP; lysates of transfected HEK293 cells in ELB lysis buffer (50 mM Tris pH 8.0, 250 mM NaCl, 0.1% NP-40, 5 mM EDTA); 1-2 ug anti-FLAG or anti-GFP antibody overnight at 4 C, protein-A agarose, three washes; western blot for the tags; in Fig. 2h and 2j with or without co-expressed dysbindin).

binding	Binder
no binding	B1
no binding	B2
binds	B3
